Our source for the binding values is publication PMC4726326, “The Arabidopsis glutamyl-tRNA reductase (GluTR) forms a ternary complex with FLU and GluTR-binding protein” (Scientific Reports, 2016).

The chains behind the UniProt entries cited, without tags or fusion partners. Residues count along the entry.
UniProt Q42522, residues 38-472: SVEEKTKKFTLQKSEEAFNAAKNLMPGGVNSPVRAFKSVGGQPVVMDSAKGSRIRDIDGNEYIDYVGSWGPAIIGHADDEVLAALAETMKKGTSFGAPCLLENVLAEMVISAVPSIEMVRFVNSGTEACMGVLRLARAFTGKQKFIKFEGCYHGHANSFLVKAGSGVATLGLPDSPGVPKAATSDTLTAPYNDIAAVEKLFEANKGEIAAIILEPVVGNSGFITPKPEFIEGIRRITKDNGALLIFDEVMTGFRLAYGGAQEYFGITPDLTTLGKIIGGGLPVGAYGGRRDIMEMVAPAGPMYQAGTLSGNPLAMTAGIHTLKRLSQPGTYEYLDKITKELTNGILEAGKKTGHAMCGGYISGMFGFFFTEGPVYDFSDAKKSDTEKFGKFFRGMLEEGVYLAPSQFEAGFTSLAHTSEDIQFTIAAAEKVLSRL

Experiment [1] concerns the target T1, GluTR-GBP complex (Arabidopsis thaliana) (UniProt P42804+Q9LU39).
T1 sequence 1: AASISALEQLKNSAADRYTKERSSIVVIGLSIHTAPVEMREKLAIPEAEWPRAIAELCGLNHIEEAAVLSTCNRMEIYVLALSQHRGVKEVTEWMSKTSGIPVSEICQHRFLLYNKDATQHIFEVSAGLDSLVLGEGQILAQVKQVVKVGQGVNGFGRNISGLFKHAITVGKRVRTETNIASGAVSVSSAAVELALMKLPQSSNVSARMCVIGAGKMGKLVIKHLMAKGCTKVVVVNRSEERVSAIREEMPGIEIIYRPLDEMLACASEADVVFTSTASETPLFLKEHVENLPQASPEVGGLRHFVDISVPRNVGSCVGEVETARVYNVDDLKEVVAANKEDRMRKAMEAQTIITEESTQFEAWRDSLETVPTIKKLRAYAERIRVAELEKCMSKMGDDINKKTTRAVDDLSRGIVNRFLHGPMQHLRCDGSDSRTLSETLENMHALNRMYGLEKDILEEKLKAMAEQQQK
T1 sequence 2: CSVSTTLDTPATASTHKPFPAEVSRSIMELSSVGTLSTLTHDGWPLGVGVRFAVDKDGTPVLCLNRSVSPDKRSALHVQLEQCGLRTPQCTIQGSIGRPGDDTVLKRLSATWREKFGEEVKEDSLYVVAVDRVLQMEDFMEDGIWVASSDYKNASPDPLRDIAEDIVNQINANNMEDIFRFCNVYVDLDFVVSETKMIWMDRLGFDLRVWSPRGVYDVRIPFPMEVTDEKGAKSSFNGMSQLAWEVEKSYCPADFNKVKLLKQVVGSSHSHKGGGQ
Description: ITC; MicroCal iTC200, 25 °C; 20 mM Tris-HCl pH 7.5, 150 mM NaCl; 20 injections of 2 μl of 0.5 mM protein into 200 μl of 50 μM protein; one-site binding model; apparent Kd; both purified. For orientation: Isothermal titration calorimetry measures the heat released or taken up as one component is titrated into another.

Experiment [2] deals with T2, Arabidopsis glutamyl-tRNA reductase (GluTR), residues 73-543 (Arabidopsis thaliana) (UniProt P42804).
T2 sequence: T1 sequence 1
The experiment is described as above.

The target in experiment [3] is T3, Arabidopsis GluTR-binding protein (GBP), residues 42-317 (Arabidopsis thaliana) (UniProt Q9LU39).
T3 sequence: T1 sequence 2
Description: SEC; purified GluTR, GBP and FLU^TPR mixed at molar ratio 2:3:3, 1 hour at 4 °C; HiLoad 16/60 Superdex 200 pg; 20 mM Tris-HCl pH 7.5, 200 mM NaCl, 4 mM dithiothreitol; both purified. For orientation: Size exclusion chromatography separates by hydrodynamic size, large species first.

No constants are given. Whether binding was seen depends on the method and setting.

As to “Mature Arabidopsis glutamate-1-semialdehyde aminomutase (GSAM), starting at residue 38 (from UniProt Q42522 38-472) (enzyme)”, the binding result in experiment [1] and in experiment [2] was “no binding (tested: 0.5 mM injected into 50 μM)” each time.

B1: C-terminal tetratricopeptide-repeat domain of Arabidopsis FLUORESCENT (FLU), residues 195-316 (domain or fragment, Arabidopsis thaliana, UniProt Q940U6 195-316, looked up)
chain: IVEPKKQELISKLKTGKTFLRNQEPEKAYTEFKIALELAQSLKDPTEEKKAARGLGASLQRQGKYREAIQYHSMVLAISKRESEDSGITEAYGAIADCYTELGDLEKAGKFYDTYIARLETD
notes: FLUORESCENT (FLU), Arabidopsis thaliana, At3g14110, truncation of residues 195-316 (TPR domain); Expression vector pET-22b(+); also called FLU^TPR; the recombinant TPR domain of FLU
For the molecule B1, the binding result in experiment [3] was “no binding”.
